Values from PubChem BioAssay AID1259254 (NCATS, 2017).

Screen: 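Gene knock-downs that lead to re-replication, shown by excess G2 DNA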 (primary screen)
Cell system: human HCT116 colorectal cancer cells
Reagent: single siRNA against human genes
Timing: 3 days
Measured: 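Nuclei stained with Hoechst and imaged; cell-cycle phase assigned by DNA content; G2 share scaled per plate, non-targeting siRNA 0%, GMNN siRNA 100%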
Direction: G2 robust z-score and G2 cells, % of GMNN control: higher = more G2 cells, more excess DNA replication
Rule for the call: 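An siRNA counts as active if its G2 robust z-score lies at least 5 MADs above the screen median; here such calls match roughly 38% of GMNN control or more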
The deposit covers about 59,000 reagents; this is a part drawn at random. About 1,550 of all reagents (2.6%) were called active. 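G2 share is only a proxy for re-replication; each gene was hit by three separate siRNAs, and active genes were retested.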 The numbers tell different reagents against one gene apart. Not all columns of the deposit are shown. Not stated in the record: the amount of reagent.

For RTP3 (receptor transporter protein 3) #1, the values are G2 robust z-score -1; G2 cells, % of GMNN control -4.1; inactive.
For RTP3 (receptor transporter protein 3) #2, the values are G2 robust z-score 3.34; G2 cells, % of GMNN control 26.5; inactive.
RTP3 (receptor transporter protein 3) #3 showed G2 robust z-score -0.949; G2 cells, % of GMNN control -3.71; inactive.
Depletion of DGAT2L7P (diacylglycerol O-acyltransferase 2 like 7, pseudogene) #1 resulted in: G2 robust z-score 0.976; G2 cells, % of GMNN control 9.83; inactive.
For DGAT2L7P (diacylglycerol O-acyltransferase 2 like 7, pseudogene) #2, the entry reads G2 robust z-score -0.268; G2 cells, % of GMNN control 1.08; inactive.
After knock-down of DGAT2L7P (diacylglycerol O-acyltransferase 2 like 7, pseudogene) #3 the results were G2 robust z-score 1.08; G2 cells, % of GMNN control 10.5; inactive.
For ANO8 (anoctamin 8) #1 the deposit lists G2 robust z-score -0.759; G2 cells, % of GMNN control -2.37; inactive.
For ANO8 (anoctamin 8) #2, the entry reads G2 robust z-score -0.209; G2 cells, % of GMNN control 1.5; inactive.
After knock-down of ANO8 (anoctamin 8) #3 the results were G2 robust z-score 3.16; G2 cells, % of GMNN control 25.2; inactive.
For P2RX3 (purinergic receptor P2X 3) #1 the deposit lists G2 robust z-score 1.14; G2 cells, % of GMNN control 11; inactive.
For P2RX3 (purinergic receptor P2X 3) #2, the values are G2 robust z-score -0.135; G2 cells, % of GMNN control 2.02; inactive.
Depletion of P2RX3 (purinergic receptor P2X 3) #3 resulted in: G2 robust z-score -0.646; G2 cells, % of GMNN control -1.58; inactive.

In a second layout: entries from further up
| gene symbol | reagent | G2 robust z-score | G2 cells, % of GMNN control | Outcome |
| --- | --- | --- | --- | --- |
| RTP3 (receptor transporter protein 3) | 3 | -0.949 | -3.71 | inactive |
| DGAT2L7P (diacylglycerol O-acyltransferase 2 like 7, pseudogene) | 1 | 0.976 | 9.83 | inactive |
